Measurements published in PMC7585531.
No constants are given. Whether binding was seen depends on the method and setting. In cells and extracts the contact can be indirect. Some entries that bind do so weakly or less than the wild type.

By UniProt entry, the sequences of proteins in these tests, tags left out.
UniProt D4A523: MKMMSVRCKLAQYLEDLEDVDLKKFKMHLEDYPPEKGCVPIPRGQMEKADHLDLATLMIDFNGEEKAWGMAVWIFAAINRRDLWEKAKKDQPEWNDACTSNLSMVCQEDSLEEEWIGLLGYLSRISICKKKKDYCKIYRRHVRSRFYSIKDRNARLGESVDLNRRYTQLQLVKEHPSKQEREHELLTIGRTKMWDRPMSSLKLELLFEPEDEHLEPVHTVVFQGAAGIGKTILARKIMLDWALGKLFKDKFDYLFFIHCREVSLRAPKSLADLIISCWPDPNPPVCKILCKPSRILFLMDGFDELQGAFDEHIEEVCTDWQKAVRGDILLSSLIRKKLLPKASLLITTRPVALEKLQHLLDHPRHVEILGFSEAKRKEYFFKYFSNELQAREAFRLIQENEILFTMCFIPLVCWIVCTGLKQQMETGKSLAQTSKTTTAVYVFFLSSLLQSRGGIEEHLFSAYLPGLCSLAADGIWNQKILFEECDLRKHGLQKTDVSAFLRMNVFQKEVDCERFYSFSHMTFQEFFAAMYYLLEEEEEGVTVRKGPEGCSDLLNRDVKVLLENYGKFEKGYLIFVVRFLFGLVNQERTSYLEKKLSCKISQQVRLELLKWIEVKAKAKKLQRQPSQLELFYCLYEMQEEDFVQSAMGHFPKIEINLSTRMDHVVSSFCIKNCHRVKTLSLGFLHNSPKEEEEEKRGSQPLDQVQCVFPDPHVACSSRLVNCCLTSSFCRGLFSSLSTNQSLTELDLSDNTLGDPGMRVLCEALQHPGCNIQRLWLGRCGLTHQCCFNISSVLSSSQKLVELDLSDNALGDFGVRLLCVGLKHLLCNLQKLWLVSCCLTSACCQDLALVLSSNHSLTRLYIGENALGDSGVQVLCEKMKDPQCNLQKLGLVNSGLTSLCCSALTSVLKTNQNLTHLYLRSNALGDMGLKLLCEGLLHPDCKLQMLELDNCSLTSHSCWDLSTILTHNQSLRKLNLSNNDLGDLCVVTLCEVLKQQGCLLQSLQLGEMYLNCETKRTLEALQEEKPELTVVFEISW

Molecular target: T1, thioredoxin interacting protein (TXNIP) (rat (endogenous in brain tissue)) (UniProt Q5M7W1)
T1 sequence: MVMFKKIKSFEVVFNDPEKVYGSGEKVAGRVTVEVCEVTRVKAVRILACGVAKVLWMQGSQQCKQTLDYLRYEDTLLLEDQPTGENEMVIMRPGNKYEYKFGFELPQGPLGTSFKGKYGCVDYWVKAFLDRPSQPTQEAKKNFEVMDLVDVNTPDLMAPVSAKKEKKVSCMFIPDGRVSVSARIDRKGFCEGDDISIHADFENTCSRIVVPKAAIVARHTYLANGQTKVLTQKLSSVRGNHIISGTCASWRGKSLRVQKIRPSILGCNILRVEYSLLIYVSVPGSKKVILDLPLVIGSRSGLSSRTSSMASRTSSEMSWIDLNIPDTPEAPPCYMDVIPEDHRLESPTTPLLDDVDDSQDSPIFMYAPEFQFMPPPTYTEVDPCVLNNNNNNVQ
Assay: co-IP; total protein of rat brain tissue (SAH rats, with or without EGb761 20 or 40 mg/kg pre-treatment) precipitated with anti-TXNIP antibody (1:200) at 4 °C overnight and protein A/G agarose; Western blot

With “NOD like receptors pyrin domain-containing 3 (NLRP3) (from UniProt D4A523 1-1035)” the binding was “binds”.
